Data published in PubChem BioAssay AID2685 (National Center for Advancing Translational Sciences (NCATS), 2010).
The list shows a part of the results. The main result of the screen is listed elsewhere. These columns were measured beside it and carry no call. Compounds called inactive in the main read-out are mostly missing here. Potencies come from curve fits of mixed quality, noted in brackets.

Assay: qHTS Assay for Lipid Storage Modulators in Drosophila S3 Cells;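 as to cell number change: cells counted by Cell Tracker Red CMTPX staining in the red channel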
Conditions: BODIPY lipid droplet fluorescence, 18-24 h; for cell number change: measured here: cell count max response, cells fed with added oleic acid
Method in brief: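 Laser-scanning cytometry quantifies lipid droplet accumulation (500–530 nm total intensity; droplet/cell object ratio) in oleic acid-fed (400 uM added) Drosophila S3 cells treated with a concentration series. 20 uM Triacsin C defined 100% inhibition.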

[1] = measured here: cell number channel AC50, cells fed with added oleic acid
[2] = measured here: lipid fluorescence (Fed channel) AC50, cells fed with added oleic acid

In the case of `COc1cc(/C=N/NC(=O)Cn2ccc(C(F)(F)F)n2)cc(OC)c1OC`, the cell number change is reported as 18.6%, the AC50 [1] is reported as 0.00517 µM [rising, full curve, poor fit] and the AC50 [2] is reported as 6.51 µM [rising, partial curve].
With `Clc1ccc(C(c2nnnn2CCc2ccccc2)N2CCSCC2)cc1` (stereo not drawn) the cell number change was 117% and the AC50 [1] was 20.6 µM [rising, partial curve].
With `COc1cccc(-c2c(-c3cc(OC)cc(OC)c3)n(C)c3ccc(-c4cnc(OC)nc4)cc23)c1` the cell number change was -7.44% and the AC50 [2] was 20.6 µM [falling, single point].
With `O=C(Cn1ccnc1)c1ccc(O)c(O)c1` the cell number change was 11% and the AC50 [2] was 18.4 µM [rising, partial curve].
For `O=C(Cc1ccccc1)Nc1ccc(N2CCN(Cc3ccccc3F)CC2)cc1`, the AC50 [2] was 6.51 µM [falling, single point].
With `N/C(=N\OC(=O)c1ccc(Cl)cc1Cl)c1ccc(Cl)cc1` the cell number change was 1.63% and the AC50 [1] was 4.61 µM [rising, single point].
For `COc1ccc(OC)c(/C=N/NC(=O)c2ccncc2)c1`, the cell number change was 2.55% and the AC50 [2] was 6.51 µM [rising, single point].
For `Cc1nc(NC(=O)c2ccc(Cl)cc2)nc2cc3c(cc12)OCO3`, the AC50 [2] was 0.058 µM [rising, full curve].
For `CCn1c(SCC(=O)NC2CCCCC2)nnc1-c1ccccn1`, the cell number change was 25.2% and the AC50 [2] was 1.64 µM [falling, partial curve, poor fit].
For `COc1ccccc1OCCCn1c(=O)oc2ccc(C)cc21`, the cell number change was 51%, the AC50 [1] was 1.46 µM [rising, full curve] and the AC50 [2] was 0.58 µM [falling, single point].
With `CC(O)C(=O)N/N=C/c1cccc2ccccc12` (stereo not drawn) the cell number change was 16.2% and the AC50 [2] was 13 µM [rising, single point].
For `O=C(Nc1ccc(Cl)c(Cl)c1)N1CCSCC1`, the cell number change was -31%, the AC50 [1] was 18.4 µM [falling, single point] and the AC50 [2] was 16.4 µM [falling, single point].
For `COc1ccccc1CNC(=O)CNC(=O)Cn1cnc2ccccc2c1=O`, the cell number change was -11.1% and the AC50 [1] was 6.51 µM [falling, single point].
With `COc1ccc(-c2cnc(SCC(=O)Nc3nc(C(C)(C)C)cs3)n2Cc2ccco2)cc1` the cell number change was -64.4%, the AC50 [1] was 1.84 µM [falling, full curve] and the AC50 [2] was 1.16 µM [falling, full curve].
With `CCC(=O)c1ccc(N2CCN(S(=O)(=O)c3ccccc3)CC2)c(F)c1` the AC50 [2] was 0.731 µM [rising, full curve, poor fit].
With `Oc1ccc2ccccc2c1CNc1cnc2ccccc2c1` the cell number change was -46% and the AC50 [1] was 16.4 µM [falling, single point].
For `CCOC(=O)c1c(C)[nH]c(=S)c(C#N)c1-c1ccccc1`, the cell number change was 23.5% and the AC50 [2] was 20.6 µM [falling, single point].
`CC1CCCCC1NC(=O)CN(C)S(=O)(=O)c1ccc2c(c1)CCC(=O)N2` (stereo not drawn) showed a cell number change of -7.41%.
For `Cc1cc(=O)c(C(=O)Nc2cccc(C(=O)NC3CC3)c2)nn1-c1ccccc1Cl`, the cell number change was 13.7% and the AC50 [2] was 14.6 µM [rising, partial curve].
With `CCOc1cc(C2CC(=O)Nc3cc(C)c(C)cc32)ccc1O` (stereo not drawn) the cell number change was -4.47% and the AC50 [2] was 0.58 µM [rising, full curve, poor fit].
`Cc1ccc(CNc2nc(C)cs2)cc1` showed a cell number change of 4.7%.
With `COc1ccc(-c2onc(C)c2C)cc1S(=O)(=O)NCCc1ccco1` the cell number change was -4.25%.
`CC1CCCC(C)N1S(=O)(=O)c1ccc(NC(=O)CNCC2CCCO2)cc1` (stereo not drawn) showed a cell number change of -4.44%.
Compound `Cc1ccsc1/C=N/NC(=O)c1ccco1` has a cell number change of 2.35%.
For `Cc1cc(C(=O)Cn2nc(C(=O)O)c3ccccc3c2=O)c(C)n1-c1ccc(OC(F)F)cc1`, the AC50 [1] was 0.00517 µM [rising, full curve, poor fit].
In the case of `COc1ccccc1OCCCCCNCCO`, the cell number change is reported as 0.631%.
In the case of `CC(C)n1c(-c2ccccc2)nc(=S)c2c1CCCC2`, the cell number change is reported as -20.1% and the AC50 [2] is reported as 0.0731 µM [falling, full curve, poor fit].
For `COc1ccc(CN(CCN)C2CC(C)N(C)CC2C)cc1` (stereo not drawn), the cell number change was 11%, the AC50 [1] was 0.0731 µM [rising, full curve, poor fit] and the AC50 [2] was 20.6 µM [rising, single point].
In the case of `COC(=O)c1cccc(NC(=S)NCc2ccc(F)cc2)c1`, the cell number change is reported as 35.5% and the AC50 [1] is reported as 6.51 µM [rising, single point].
For `COc1ccc(-n2c(C)nc3c(cnn3-c3ccc(C)cc3)c2=O)cc1`, the cell number change was 12.3% and the AC50 [2] was 0.259 µM [rising, partial curve, poor fit].
For `O=C(CN1CCCCC1)N1CCN(C(=O)CN2CCCCC2)CC1`, the cell number change was 6.07%.
For `O=C(OCCN1CCCCC1)c1cccc(Cl)c1`, the cell number change was -8.14% and the AC50 [2] was 0.0291 µM [falling, full curve, poor fit].
In the case of `CSc1ccc(C2C(C#N)=C(N)Oc3cc4c(cc32)OCO4)cc1` (stereo not drawn), the cell number change is reported as 97%, the AC50 [1] is reported as 25.9 µM [rising, partial curve, poor fit] and the AC50 [2] is reported as 2.59 µM [rising, partial curve].
For `Cc1cc(C)n(/N=C/c2c[nH]c3ccccc23)c(=O)c1C#N`, the cell number change was 66.1%, the AC50 [1] was 3.66 µM [rising, full curve] and the AC50 [2] was 6.51 µM [rising, single point].
Work on `CCN(CC)C(NC(=O)c1ccccc1)C(=O)c1ccccc1` (stereo not drawn) yielded a cell number change of 8.81%.
`COc1ccc(Cn2ccnc2SCC(=O)Nc2ccccc2F)cc1` gave a cell number change of 24.3%.
For `NS(=O)(=O)c1ccc(CCNC(=O)CN2CCN(Cc3cccc(C(F)(F)F)c3)CC2)cc1`, the cell number change was 12.2% and the AC50 [2] was 29.1 µM [falling, single point].
With `Cc1ccc(-c2noc(C3CCCN(C(=O)c4ccc(C(C)(C)C)cc4)C3)n2)o1` (stereo not drawn) the cell number change was -1.28% and the AC50 [2] was 5.17 µM [falling, partial curve].
In the case of `CCOC(=O)c1c(NC(=O)Cn2nc(C(=O)O)c3ccccc3c2=O)sc(C)c1C`, the cell number change is reported as 33%, the AC50 [1] is reported as 14.6 µM [rising, partial curve, poor fit] and the AC50 [2] is reported as 6.51 µM [rising, partial curve].
For `CCn1c(CNc2ccccc2Cl)nnc1SCC(=O)NCc1ccccc1`, the cell number change was -76.1%, the AC50 [1] was 25.9 µM [falling, partial curve] and the AC50 [2] was 4.11 µM [falling, partial curve].
In the case of `FC(F)(F)c1cccc(CN2CCC(c3cc(-c4cccs4)n[nH]3)CC2)c1`, the cell number change is reported as -57.2%, the AC50 [1] is reported as 20.6 µM [falling, single point] and the AC50 [2] is reported as 20.6 µM [falling, single point].
In the case of `O=C(c1cccc([N+](=O)[O-])c1)N1CCN(S(=O)(=O)/C=C/c2ccccc2)CC1`, the cell number change is reported as 26.8%, the AC50 [1] is reported as 0.00461 µM [rising, full curve, poor fit] and the AC50 [2] is reported as 0.00517 µM [rising, full curve, poor fit].
In the case of `COc1ccc2nc(SC(C)C(=O)NC3CCCCC3)[nH]c2c1` (stereo not drawn), the cell number change is reported as -1.25% and the AC50 [2] is reported as 0.58 µM [falling, partial curve].
With `O=C(CCN1C(=O)C2C3C=CC(C3)C2C1=O)Nc1ccc2ncccc2c1` (stereo not drawn) the cell number change was 32.9% and the AC50 [1] was 0.517 µM [rising, full curve, poor fit].
With `O=C(COC(=O)c1ccc(S(=O)(=O)Nc2ccccc2)cc1)NCCC1=CCCCC1` the cell number change was -1.06% and the AC50 [2] was 0.58 µM [falling, single point].
Work on `COCCNc1nc(C)c(C(C)=O)s1` yielded a cell number change of -22.4%.
For `COC(=O)c1ccc(NC(=O)CSc2nccn2CCc2ccccc2)cc1`, the cell number change was 56% and the AC50 [1] was 6.51 µM [rising, partial curve].
For `COc1nonc1NCn1nc(C)cc1C`, the cell number change was -10.1% and the AC50 [2] was 6.51 µM [falling, single point].
In the case of `O=C(CCCn1c(=O)c2ccccc2n(Cc2ccccc2)c1=O)NCc1ccco1`, the cell number change is reported as -19.3% and the AC50 [2] is reported as 1.16 µM [rising, full curve].
For `O=C1Nc2ccccc2C(=O)C1(Cl)Cc1ccccc1` (stereo not drawn), the cell number change was -18.4% and the AC50 [2] was 7.31 µM [falling, partial curve].
With `CC(=O)Nc1ccc(NC(=O)c2ccc(C3SCC(=O)N3CCc3ccccc3)cc2)cc1` (stereo not drawn) the cell number change was 4.89% and the AC50 [2] was 0.0206 µM [rising, full curve, poor fit].
With `CN(Cc1nc2c(s1)CCCC2)C(=O)CCc1nnc(-c2ccc3c(c2)OCO3)o1` the cell number change was 34.3%, the AC50 [1] was 0.461 µM [rising, full curve, poor fit] and the AC50 [2] was 0.517 µM [rising, full curve, poor fit].
`COc1ccc(S(=O)(=O)N2CCN(C(=O)c3ccco3)CC2)cc1C(C)(C)C` showed a cell number change of -4.99%.
For `O=C(COC(=O)c1cc([N+](=O)[O-])ccc1N1CCOCC1)c1ccc(F)cc1`, the cell number change was 31.5%, the AC50 [1] was 0.259 µM [rising, full curve, poor fit] and the AC50 [2] was 8.2 µM [rising, partial curve, poor fit].
In the case of `CC(C)N(C1=N/C(=C\c2ccco2)C(=O)N1c1ccccc1)C(C)C`, the cell number change is reported as 6.31% and the AC50 [1] is reported as 0.13 µM [falling, full curve, poor fit].
For `O=C(COc1ccccc1Br)Nc1ccc(S(=O)(=O)N2CCCC2)cc1`, the cell number change was -30.1% and the AC50 [2] was 4.11 µM [falling, single point].
With `O=C(CN1CCN(Cc2ccccc2)CC1)NNC(=O)c1ccccc1` the cell number change was -0.752% and the AC50 [2] was 1.46 µM [falling, partial curve, poor fit].
In the case of `N#Cc1cc(-c2ccccc2)oc1/N=C/c1ccccc1O`, the AC50 [1] is reported as 0.103 µM [falling, full curve] and the AC50 [2] is reported as 0.0731 µM [falling, full curve, poor fit].
With `O=C(NCCN1C(=O)C2C3C=CC(C3)C2C1=O)Nc1cccnc1` (stereo not drawn) the cell number change was 8.78% and the AC50 [2] was 29.1 µM [falling, single point].
For `COc1cccc(C2c3[nH]c4ccccc4c3CCN2Cc2ncc[nH]2)c1` (stereo not drawn), the cell number change was -26.1% and the AC50 [2] was 20.6 µM [falling, single point].
